Results from article PMC4732303.
Results are given in words; binding and its absence hold for the method and conditions named. Binding seen in cells or lysates may run through a third protein. Some results given as binding are weak or reduced against the parent protein; the word gives no strength. For some assays here: Tags and fused reporters may be left off the sequences shown. Blank lines part the entries; values can stand above or below the molecule they belong to.

Tests used:
[1] = target: T1, human VE-cadherin, full-length coding sequence in pcDNA3.1, overexpressed (human) (UniProt P33151); test: co-IP; overexpressed proteins from transfected HEK293T cells; modified RIPA buffer (50 mM Tris-HCl pH 7.4, 150 mM NaCl, 0.5% NP-40, 0.1% SDS); bait precipitated with a specific or anti-HA antibody, normal IgG as control, western blot
T1 sequence: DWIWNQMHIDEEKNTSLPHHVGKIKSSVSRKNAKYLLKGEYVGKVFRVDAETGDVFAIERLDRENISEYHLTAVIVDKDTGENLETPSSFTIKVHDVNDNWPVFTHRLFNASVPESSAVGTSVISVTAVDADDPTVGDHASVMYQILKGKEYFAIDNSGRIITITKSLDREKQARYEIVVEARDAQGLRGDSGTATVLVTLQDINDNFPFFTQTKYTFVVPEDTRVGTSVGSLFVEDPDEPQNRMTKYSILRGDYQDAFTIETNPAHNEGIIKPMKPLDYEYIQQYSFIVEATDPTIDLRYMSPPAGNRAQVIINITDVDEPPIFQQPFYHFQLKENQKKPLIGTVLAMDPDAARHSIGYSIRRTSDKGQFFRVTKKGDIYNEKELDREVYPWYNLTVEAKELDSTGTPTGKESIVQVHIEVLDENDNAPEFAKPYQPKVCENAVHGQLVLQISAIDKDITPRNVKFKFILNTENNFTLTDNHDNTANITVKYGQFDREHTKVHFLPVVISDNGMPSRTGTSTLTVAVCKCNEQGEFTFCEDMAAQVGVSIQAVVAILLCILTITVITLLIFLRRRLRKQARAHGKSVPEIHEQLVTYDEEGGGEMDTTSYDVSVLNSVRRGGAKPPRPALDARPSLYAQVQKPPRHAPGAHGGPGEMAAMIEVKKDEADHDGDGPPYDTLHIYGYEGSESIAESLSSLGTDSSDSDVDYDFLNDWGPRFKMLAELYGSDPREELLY

[2] = target: T2, VE-cadherin (vascular endothelial cadherin), endogenous in HUVECs (human (endogenous in HUVEC)) (UniProt P33151); test: co-IP; endogenous proteins from confluent HUVECs, untreated or stimulated with 10 nM BMP6 (30 or 60 min); TNE lysis buffer with 0.5% Triton X-100; bait precipitated with a specific antibody and protein A-Sepharose, western blot
T2 sequence: T1 sequence

[3] = target: T2, VE-cadherin (vascular endothelial cadherin), endogenous in HUVECs (human (endogenous in HUVEC)); test: proximity ligation; in situ PLA (Duolink) in fixed HUVECs, untreated or BMP6 for 60 min; antibodies to intracellular epitopes of ALK2 or BMPRII combined with one to VE-cadherin; heteromers counted and normalized to untreated cells
BMPRII-Myc, Q13873 = target: T3, BMPRII-Myc, Q13873; test: co-IP; HEK293T cells transfected with BMPRII-Myc and ALK2-HA with co-expressed VE-cadherin, with or without BMP6 for 45 min; BMPRII-Myc precipitated with a Myc-specific antibody; modified RIPA buffer; details: remark: other sources report otherwise
T3 chain: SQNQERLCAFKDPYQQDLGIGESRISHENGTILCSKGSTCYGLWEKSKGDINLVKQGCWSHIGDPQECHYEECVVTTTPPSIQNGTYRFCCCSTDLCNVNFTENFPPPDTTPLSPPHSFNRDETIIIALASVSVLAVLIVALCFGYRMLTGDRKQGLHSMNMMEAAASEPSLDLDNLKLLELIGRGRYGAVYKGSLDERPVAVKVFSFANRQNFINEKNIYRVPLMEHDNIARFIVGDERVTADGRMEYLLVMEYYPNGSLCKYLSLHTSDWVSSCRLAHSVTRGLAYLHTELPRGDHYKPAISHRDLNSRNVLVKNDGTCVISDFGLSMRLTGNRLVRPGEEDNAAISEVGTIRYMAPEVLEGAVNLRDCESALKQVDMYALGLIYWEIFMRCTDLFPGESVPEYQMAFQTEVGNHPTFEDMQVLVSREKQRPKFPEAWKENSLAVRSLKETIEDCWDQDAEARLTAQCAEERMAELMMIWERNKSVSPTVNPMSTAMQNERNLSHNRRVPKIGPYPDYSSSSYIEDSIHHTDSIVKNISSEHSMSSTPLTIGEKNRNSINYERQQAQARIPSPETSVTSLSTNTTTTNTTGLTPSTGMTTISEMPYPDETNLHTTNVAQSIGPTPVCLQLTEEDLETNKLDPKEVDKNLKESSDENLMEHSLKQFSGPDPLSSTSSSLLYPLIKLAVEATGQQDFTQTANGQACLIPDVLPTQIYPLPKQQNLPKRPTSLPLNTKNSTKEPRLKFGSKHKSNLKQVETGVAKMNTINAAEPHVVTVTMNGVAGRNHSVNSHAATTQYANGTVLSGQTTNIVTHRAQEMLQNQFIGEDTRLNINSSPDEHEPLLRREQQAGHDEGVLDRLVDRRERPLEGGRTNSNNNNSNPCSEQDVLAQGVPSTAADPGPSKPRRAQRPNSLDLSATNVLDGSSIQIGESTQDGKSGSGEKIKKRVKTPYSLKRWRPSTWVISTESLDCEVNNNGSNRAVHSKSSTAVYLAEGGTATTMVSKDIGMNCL

BMPRII-Myc [4] = target: BMPRII-Myc (UniProt Q13873); test: co-IP; HEK293T cells transfected with BMPRII-Myc and ALK2-HA without VE-cadherin, with or without BMP6 for 45 min; BMPRII-Myc precipitated with a Myc-specific antibody; modified RIPA buffer
BMPRII-Myc [5] = target: BMPRII-Myc (UniProt Q13873); test: co-IP; HEK293T cells transfected with BMPRII-Myc and ALK2-HA with co-expressed VE-cadherin, with or without BMP6 for 45 min; BMPRII-Myc precipitated with a Myc-specific antibody; modified RIPA buffer

binding [1]: binds
Molecule: BMPRII-HA (from UniProt Q13873 27-1038) (receptor)

binding [2]: binds
binding [3]: binds
Molecule: BMP type II receptor (BMPRII), endogenous in HUVECs (from UniProt Q13873 27-1038)

binding (BMPRII-Myc, Q13873): binds
B1: C-terminally HA-tagged human ALK2 (ALK2-HA), Q04771 21-509 (receptor)
chain: MEDEKPKVNPKLYMCVCEGLSCGNEDHCEGQQCFSSLSINDGFHVYQKGCFQVYEQGKMTCKTPPSPGQAVECCQGDWCNRNITAQLPTKGKSFPGTQNFHLEVGLIILSVVFAVCLLACLLGVALRKFKRRNQERLNPRDVEYGTIEGLITTNVGDSTLADLLDHSCTSGSGSGLPFLVQRTVARQITLLECVGKGRYGEVWRGSWQGENVAVKIFSSRDEKSWFRETELYNTVMLRHENILGFIASDMTSRHSSTQLWLITHYHEMGSLYDYLQLTTLDTVSCLRIVLSIASGLAHLHIEIFGTQGKPAIAHRDLKSKNILVKKNGQCCIADLGLAVMHSQSTNQLDVGNNPRVGTKRYMAPEVLDETIQVDCFDSYKRVDIWAFGLVLWEVARRMVSNGIVEDYKPPFYDVVPNDPSFEDMRKVVCVDQQRPNIPNRWFSDPTLTSLAKLMKECWYQNPSARLTALRIKKTLTKIDNSLDKLKTDC

binding [3]: binds
B2: activin receptor-like kinase 2 (ALK2), endogenous in HUVECs (receptor, UniProt Q04771 21-509)
chain: B1 chain

binding [1]: binds
binding (BMPRII-Myc [4]): binds weakly
B3: C-terminally HA-tagged human ALK2 (ALK2-HA) (receptor, UniProt Q04771 21-509)
chain: B1 chain

binding (BMPRII-Myc [5]): binds
B4: human VE-cadherin, full-length coding sequence in pcDNA3.1, overexpressed (protein, UniProt P33151 48-784)
chain: T1 sequence
